From the supplement of paper PMC8256030
Values joined by “and” are separate entries in the source; they are usually repeats but may differ in a detail not shown here. Identical values can stand only once. Some of the results follow. Single values are uncertain here, since repeats match poorly.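 HEK293T cells were given each compound shortly before transfection with a reporter in which red mCherry is followed by the SARS-CoV-2 frameshift element and then GFP in the −1 frame, so GFP appears only after frameshifting.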

tested on: HEK293T; test: percent viability (nuclei count) relative to control; higher = more viable cells; conditions: 10 µM; 24 h

| SMILES | percent viability |
| --- | --- |
| N[C@@H](COP(=O)(O)O)C(=O)O [dexfosfoserine] | 196% |
| CCCCc1oc2ccccc2c1C(=O)c1cc(I)c(OCCN(CC)CC)c(I)c1 [amiodarone] | 466% and 362% |
| C[C@]12C=CC(=O)C=C1CC[C@@H]1[C@@H]2[C@@H](O)C[C@@]2(C)[C@H]1CC[C@]2(O)C(=O)CO [prednisolone] | 324% and 242% and 116% |
| CCc1cc2c(cc1CC)CC(NC[C@H](O)c1ccc(O)c3[nH]c(=O)ccc13)C2 [Indacaterol] | 315% |
| CNCC(=O)N[C@@H](CCCNC(=N)N)C(=O)N[C@H](C(=O)N[C@@H](Cc1ccc(O)cc1)C(=O)N[C@H](C(=O)N[C@@H](Cc1cnc[nH]1)C(=O)N1CCC[C@H]1C(=O)N[C@@H](C)C(=O)O)C(C)C)C(C)C [saralasin] | 130% |
| O=C[C@H](O)[C@H]1OC(=O)[C@@H](O)[C@H]1O [glucurolactone] | 152% |
| CN(C)CCC=C1c2ccccc2C(C)(C)c2ccccc21 [melitracen] | 264% |
| CC(C)(Cc1ccccc1)NCC(O)c1ccc(O)c(NS(C)(=O)=O)c1 (configuration not stated) [zinterol] | 130% |
| C[n+]1ccccc1C=NO [pralidoxime iodide] | 93.4% |
| Cc1c(C)c2c(c(C)c1O)CCC(C)(CCCC(C)CCCC(C)CCCC(C)C)O2 (configuration not stated) [Vitamin E] | 117% |
| O=C1CN(/N=C/c2ccc([N+](=O)[O-])o2)C(=O)N1CO [nifurtoinol] | 157% |
| O=C(NCC1[C@H]2CN(C(=O)OCc3cc(C(F)(F)F)cc(C(F)(F)F)c3)C[C@@H]12)c1ccc2n[nH]nc2c1 (some centres not stated) | 229% |
